Laboratory results: PubChem BioAssay AID540276 (National Center for Advancing Translational Sciences (NCATS), 2011)
Several values for one entry are separate records, joined by “and”; a condition that tells them apart may be missing. Equal values may be shown once. Hit rate of the full screen: of about 300,000 compounds, about 5,400 (1.8%) were called active. Inconclusive results, whose numbers are uncertain, are shown with a selection of clear calls. Calls follow the shape of the full dose curve; tested in HEK293 cells. Potencies beside an inconclusive call are fits to weak or partial responses and may not hold up.

Experiment: qHTS for inhibitors of binding or entry into cells for Marburg Virus
Details: Marburg virus pseudotyped entry inhibition, cell reporter; activity change, negative = inhibition: at 37.8 µM (top of the series) unless noted
% is scaled to controls: 0 for no effect and ±100 for the full control effect; potency is read from the fitted curve at half-maximal effect.

SMILES	Potency	activity change, negative = inhibition
COc1cccc(CNC(=O)Cc2ccc(-c3ccccc3)cc2)c1	inconclusive: 22.4 µM [inhibitor, single point]	
O=C(CSc1nnc(SCC(=O)c2ccco2)s1)c1ccco1	inconclusive: 10 µM [activator, partial curve, poor fit]	
N=C1SCC(=O)N1c1ccccc1Cl		inactive: -8.76% [at 46.1 µM]
Cc1ccc(CCCOC(=O)C[N+]2(C)CCCC2)cc1	inconclusive: 35.5 µM [activator, single point]	
N#Cc1c(NC(=O)C2CC2)sc2c1CCCCC2		inactive: 1.63%
COc1cc(/C=C/C=C2/CC/C(=C/C=C/c3ccc(O)c(OC)c3)C2=O)ccc1O	inconclusive: 11.2 µM [inhibitor, partial curve]	
COc1ccc(S(=O)(=O)NCc2cccnc2)cc1NC(=O)c1ccccc1C		inactive: -13.1% [at 46.1 µM]
CCOC(=O)C1=C(CNCCc2ccc(Cl)cc2)NC(=O)NC1c1ccc2c(c1)OCO2 (stereo unspecified)	inconclusive: 35.5 µM [inhibitor, single point]	
CCc1nn(CC(=O)NC2CC2)c(=O)c2cc3ccccc3n12		inactive: 15.2% [at 46.1 µM]
O=C(NCC1CCCO1)c1cc(-c2ccco2)nc2ccccc12 (stereo unspecified)		inactive: 21.6%
O=C1c2ccccc2-c2nnc(-c3ccc(O)cc3)cc21	inconclusive: 13 µM [inhibitor, partial curve, poor fit]	
O=S(=O)(NC1CCCCC1NCc1ccco1)c1ccc(Cl)cc1 (stereo unspecified)	inconclusive: 32.6 µM [inhibitor, single point]	
Cc1ccc(C(C(=O)NC2CCCCC2)N(CCCN2CCOCC2)C(=O)c2snc(C(N)=O)c2N)cc1 (stereo unspecified)	inconclusive: 5.62 µM [activator, single point]	
CCCCCC[C@@H]([C@@H](C)O)n1cnc2c(N)ncnc21	inconclusive: 20 µM [inhibitor, single point]	
CN(C)C(=O)CSc1nnc2sc3ccccc3n12	inactive and inconclusive: 15.8 µM [activator, partial curve, poor fit]	
CN(Cc1ccccc1)c1nc2c(c(=O)n(C)c(=O)n2C)n1CCCc1ccccc1	inconclusive: 11.2 µM [inhibitor, partial curve, poor fit]	
Cc1ccc(OCCCCCN2CCOCC2)c(Cl)c1	inconclusive: 0.316 µM [inhibitor, full curve, poor fit]	
CCN(CC)CCn1c2c(c(SCC(=O)Nc3ccc4c(c3)OCCO4)nc1=O)CCCC2	inconclusive: 35.5 µM [inhibitor, single point]	
COc1ccc(C2CC(=O)N(CC(=O)Nc3ccc(C(F)(F)F)cc3)c3ccccc3S2)cc1 (stereo unspecified)	inconclusive: 7.08 µM [activator, partial curve, poor fit]	
CC1CCN(c2nc3ccc(C(=O)NCc4ccc(Cl)cc4)cc3s2)CC1		inactive: 4.96% [at 46.1 µM]
Cc1ccc(NC(=O)C2CCN(S(=O)(=O)c3ccc(N4CCCC4=O)cc3)CC2)cc1Cl	inconclusive: 8.91 µM [inhibitor, partial curve, poor fit]	
CN(C)Cc1ccc(CNC(=O)c2ccc(Cl)c(S(=O)(=O)NC3CC3)c2)cc1	inconclusive: 0.398 µM [inhibitor, partial curve, poor fit]	

SMILES	Potency	activity change, negative = inhibition
O=C1Cc2ccccc2C(=O)N1Nc1ccccc1	inconclusive: 35.5 µM [activator, single point]	
CCN(CC)CCNC(=O)c1ccc2c(c1)N(Cc1ccccc1)C(=O)c1ccccc1S2=O (stereo unspecified)	inconclusive: 35.5 µM [inhibitor, single point]	
CC(=O)Nc1cccc(-c2nc3ccccc3c(=O)o2)c1	inconclusive: 0.316 µM [inhibitor, full curve, poor fit]	
CCn1nc(C)c(C(=O)Nc2cc(Oc3cc(C)cc(C)c3)cc([N+](=O)[O-])c2)c1C	inconclusive: 22.4 µM [inhibitor, partial curve, poor fit]	
CCC(=O)C1CCCN(C(=O)c2cccc(OC3CCN(S(C)(=O)=O)CC3)c2)C1 (stereo unspecified)		inactive: 10.7% [at 46.1 µM]
COc1ccc(-n2c(=O)c3sc4ccccc4c3n(Cc3ccccc3)c2=O)cc1	inconclusive: 2.82 µM [inhibitor, single point]	
CCc1ccc(OCC(=O)NCC(c2ccc(OC)cc2)N2CCOCC2)cc1 (stereo unspecified)		inactive: 11.1% [at 46.1 µM]
COc1ccc(N2CCN(C(=O)CCCN3C(=O)c4cccc5cccc(c45)C3=O)CC2)cc1	inconclusive: 32.6 µM [inhibitor, partial curve, poor fit]	
COc1ccc2cc(-c3[nH]ncc3CN3CCCCO3)ccc2c1	inconclusive: 5.62 µM [inhibitor, partial curve]	
COc1ccc(P2(=O)Nc3ccccc3N2)cc1		inactive: 10.1%
COc1ccccc1C(=O)NNC(=O)Cc1ccccc1		inactive: 3.28% [at 46.1 µM]
O=S(=O)(c1cc(-c2nnc(-c3ccc(Br)cc3)o2)ccc1Br)N1CCCCCC1	inconclusive: 3.55 µM [inhibitor, full curve]	
Fc1ccc(CNc2cc(-c3ccccc3)nc3nncn23)cc1	inconclusive: 11.2 µM [inhibitor, partial curve, poor fit]	
CCn1c(-c2csc3c2CCC(C)C3)n[nH]c1=S (stereo unspecified)	inconclusive: 0.562 µM [inhibitor, full curve, poor fit]	
COc1cc2c(cc1NC(=O)CN1CCN(S(=O)(=O)c3ccccc3F)CC1)oc1ccccc12	inconclusive: 1.41 µM [inhibitor, partial curve, poor fit]	
O=C(NCCCCCCNC(=O)OCc1ccccc1)OCc1ccccc1	inconclusive: 1.12 µM [inhibitor, single point]	
OC1(CNCc2ccccc2)C2CC3CC(C2)CC1C3 (stereo unspecified)	inconclusive: 35.5 µM [inhibitor, single point]	
Cc1cc(NC(=O)c2cccc(S(=O)(=O)N3CCCCCC3)c2)no1		inactive: -21.2%
C[N+](C)(C)CCCCCC[N+](C)(C)C	inconclusive: 35.5 µM [activator, partial curve] and inconclusive: 3.66 µM [activator, partial curve, poor fit]	inconclusive: 4.02% [activator]
O=C(Cc1csc(N2CCOCC2)n1)N/N=C/c1ccc(Cl)cc1Cl	inconclusive: 29.1 µM [inhibitor, single point]	
Nc1c(C(=O)Nc2ccc(Cl)cc2F)sc2nc(-c3cccs3)ccc12	inconclusive: 0.562 µM [activator, full curve, poor fit]	
Cc1onc(C(=O)N2CCN(c3ccccc3F)CC2)c1-c1ccccc1Cl		inactive: -2.79%

Reformatted field by field: part of the list above.
O=S(=O)(c1cc(-c2nnc(-c3ccc(Br)cc3)o2)ccc1Br)N1CCCCCC1
  Potency: inconclusive: 3.55 µM [inhibitor, full curve]
Cc1onc(C(=O)N2CCN(c3ccccc3F)CC2)c1-c1ccccc1Cl
  activity change, negative = inhibition: inactive: -2.79%

The results go on:

SMILES	Potency	activity change, negative = inhibition
CC(C)c1ccc(S(=O)(=O)N2CCN(C(=O)C3CC3C)CC2)cc1 (stereo unspecified)	inconclusive: 1.26 µM [inhibitor, full curve, poor fit]	
Cc1ccc(S(=O)(=O)N2CCC3(CC2)OCCN3S(=O)(=O)c2c(C)cc(C)cc2C)cc1		inactive: 5.93%
COC(=O)C1=C(C)N=C2S[C@@H](C)C(=O)N2[C@H]1c1cccs1		inactive: 6.02%
c1coc(C2Nc3ccccc3-c3nc4ccccc4n32)c1 (stereo unspecified)	inconclusive: 0.103 µM [inhibitor, partial curve, poor fit]	
Cn1c(=O)c([N+](=O)[O-])c(-n2ccnc2)c2ccccc21	inconclusive: 35.5 µM [inhibitor, single point]	
COc1ccc(OC)c(NC(=O)C(CCSC)NS(=O)(=O)c2cccs2)c1 (stereo unspecified)	inconclusive: 25.1 µM [inhibitor, single point]	
COc1ccc(CN2C(=O)c3ccccc3C(/C=N\OCc3ccc(C)cc3)C2=O)cc1 (stereo unspecified)	inconclusive: 11.2 µM [inhibitor, partial curve, poor fit]	
O=C(N/N=C/c1c[nH]c2ccc(Br)cc12)c1ccncc1	inconclusive: 0.562 µM [inhibitor, full curve, poor fit]	
Cc1nn(C)c(Nc2ccc(Br)cc2)c1Br		inactive: -21.9% [at 46.1 µM]
COc1ccc(/C(O)=C/C(=O)C(=O)NNC(=O)c2ccccc2)cc1		inactive: 17.2% [at 46.1 µM]
COC(=O)C(C)Oc1ccc(-c2nccc(-c3ccccn3)n2)cc1 (stereo unspecified)	inconclusive: 35.5 µM [activator, single point]	
CCc1ccc(-c2cc(C)no2)cc1S(=O)(=O)N1CCN(c2ccc(C(C)=O)cc2)CC1	inconclusive: 8.91 µM [inhibitor, partial curve, poor fit]	
CCN(CC)C(=O)c1ccc(NC(=O)CCn2nc(-c3ccc(Cl)cc3)c3ccccc3c2=O)cc1	inconclusive: 12.6 µM [inhibitor, partial curve, poor fit]	
Cc1ccc(C)c(NC(=O)Cn2c(=O)n(Cc3cccs3)c(=O)c3cccnc32)c1		inactive: -0.476% [at 46.1 µM]
Clc1ccc(-c2nnc(CSc3nnc(-c4cccs4)n3Cc3ccccc3)o2)cc1	inconclusive: 8.2 µM [inhibitor, partial curve]	
COC(=O)c1ccc(NC(=O)CN(c2ccc3c(c2)OCO3)S(C)(=O)=O)cc1	inconclusive: 22.4 µM [activator, single point]	
COc1ccc(CN(C)CC2CCCN(CCc3ccc(Cl)cc3)C2)cc1OC (stereo unspecified)	active: 2.24 µM	
Cc1ccc(S(=O)(=O)N2CCCC2CNC(=O)C(=O)Nc2ccc(F)cc2)cc1 (stereo unspecified)		inactive: -28.5%
O=C(Cc1cccs1)NNC(=S)NCc1ccco1	inconclusive: 10 µM [inhibitor, partial curve, poor fit]	
Cc1c(Cl)cccc1N=C1SCCN1C(=O)CN1C(=O)NC2(CCCC2)C1=O	inconclusive: 35.5 µM [inhibitor, single point]	
CCCC/C(C)=C/[C@@H](NP(=O)(c1ccccc1)c1ccccc1)c1ccccc1	inconclusive: 23.1 µM [inhibitor, single point]	
